From publication PMC10902300

By UniProt entry, the sequences of proteins in these tests, tags left out.
UniProt P15923: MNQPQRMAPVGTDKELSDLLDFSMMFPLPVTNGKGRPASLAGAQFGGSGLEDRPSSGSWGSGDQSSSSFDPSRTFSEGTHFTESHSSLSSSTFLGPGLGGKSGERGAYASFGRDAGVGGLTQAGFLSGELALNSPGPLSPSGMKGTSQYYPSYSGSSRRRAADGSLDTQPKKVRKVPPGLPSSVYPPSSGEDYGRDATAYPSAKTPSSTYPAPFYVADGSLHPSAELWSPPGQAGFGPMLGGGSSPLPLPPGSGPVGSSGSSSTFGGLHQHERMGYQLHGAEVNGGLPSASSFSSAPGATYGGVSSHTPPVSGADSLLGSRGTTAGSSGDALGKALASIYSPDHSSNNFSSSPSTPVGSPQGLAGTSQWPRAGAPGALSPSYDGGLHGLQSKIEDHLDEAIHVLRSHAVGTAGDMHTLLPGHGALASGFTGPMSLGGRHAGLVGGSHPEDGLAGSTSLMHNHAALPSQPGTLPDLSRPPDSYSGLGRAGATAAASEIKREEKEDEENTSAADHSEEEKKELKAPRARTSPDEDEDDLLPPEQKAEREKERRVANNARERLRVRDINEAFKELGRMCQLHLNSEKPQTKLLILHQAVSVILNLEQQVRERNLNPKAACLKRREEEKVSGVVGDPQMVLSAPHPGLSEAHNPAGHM
UniProt Q13547: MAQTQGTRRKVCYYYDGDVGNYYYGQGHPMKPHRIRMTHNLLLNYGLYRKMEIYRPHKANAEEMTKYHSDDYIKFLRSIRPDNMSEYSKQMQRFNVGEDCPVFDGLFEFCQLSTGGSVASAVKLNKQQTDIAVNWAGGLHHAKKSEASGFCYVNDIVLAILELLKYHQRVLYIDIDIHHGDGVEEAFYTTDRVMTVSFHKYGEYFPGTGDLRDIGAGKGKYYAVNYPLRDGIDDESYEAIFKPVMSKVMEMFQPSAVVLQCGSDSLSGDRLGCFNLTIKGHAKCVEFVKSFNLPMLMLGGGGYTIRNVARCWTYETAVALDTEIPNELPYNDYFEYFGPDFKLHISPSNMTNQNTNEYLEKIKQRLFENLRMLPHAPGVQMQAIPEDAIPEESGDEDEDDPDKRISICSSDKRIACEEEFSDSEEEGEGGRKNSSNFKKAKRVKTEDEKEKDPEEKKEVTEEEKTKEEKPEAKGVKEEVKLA

Biological target: Tcf3 in Jurkat cells (human (endogenous in Jurkat)) (UniProt P15923)
Test: affinity purification with mass spectrometry; Jurkat cell lysate on anti-Tcf3 antibody-conjugated resin overnight at 4 °C; eluate separated by SDS-PAGE, gel segments to LC/MS

For “HDAC1 in Jurkat cells (from UniProt Q13547 1-482) (enzyme)”, the binding was “binds”.

No constants are given. Whether binding was seen depends on the method and setting. Binding seen in cells or lysates may run through a third protein. A yes stands for co-enrichment or nearness to the bait. Other partners may have been found.
